The results in this text go back to US20190023782A1 (SHANGHAI JUNSHI BIOSCIENCES, published 2019).

These are yes or no findings as the source states them, for the method shown.

In one test the target is CD28. In words: ELISA, antigen coated at 1 ug/ml.
The next test has as its target CTLA-4. In words: ELISA, antigen coated at 1 ug/ml. (In general: ELISA stands for enzyme-linked immunosorbent assay.)
Substrate in test [1]: ICOS
In words: ELISA, antigen coated at 1 ug/ml.

The target in test [2] is mouse-derived PD-1 (mouse). Briefly: ELISA, PD-1 coated at 1 ug/ml, various antibody concentrations.

B1: Clone 11 (antibody, V domains shown)
VH: QVTLKESGPGILQPSQTLSLTCSFSGFSLSTFGMGVGWIRQPSGKGLEWLAHIWWDDDKYYNPALKSRLTISKNTSKNQVFLKIANVDTEDTATYYCARIEERFRWYFDVWGTGTTVTVSS
VL: RAGWTQESALTTSPGETVTLTCRSSTGAITTSNYANWVQEKPDHLFTGLIGGTNNRAPGVPARFSGSLIGDKAALTITGAQTEDEAIYFCALWYSNHWVFGGGTKLTVL
notes: Mouse hybridoma antibody; also called antibody candidate Clone 11
For B1, the binding entry (with CD28; with CTLA-4; in test [1]) was “no binding (tested: 1 ug/ml)” in each case.

B2: H1L1 (antibody, V domains shown)
VH: QGQLQQSGAELVRPGASVTLTCKASGYTFTDYEMHWVKQTPIHGLEWIGVIESETGGTAYNQKFKGKAKLTADKSSSTAYMELRSLTSEDSAVYYCTREGITTVATTYYWYFDVWGTGTTVTVSS
VL: DVLMTQTPLSLPVSLGDQASISCRSSQSIVHSNGNTYLEWYLQKPGQSPELLIYKVYNRFSGVPDRFSGSGSGTDFTLKISRVEAEDLGVYYCFQGSHVPFTFGSGTKLEIK
notes: also called original antibody 1 (heavy chain 1, light chain 1)
Take B2: the binding result (in the test with CD28; with CTLA-4; in test [1]) was “no binding (tested: 1 ug/ml)” each time.

B3: humanized antibody Clone 38 (antibody, V domains shown)
VH: QGQLVQSGAEVKKPGASVKVSCKASGYTFTDYEMHWVRQAPIHGLEWIGVIESETGGTAYNQKFKGRVTITADKSTSTAYMELSSLRSEDTAVYYCAREGITTVATTYYWYFDVWGQGTTVTVSS
VL: DVVMTQSPLSLPVTLGQPASISCRSSQSIVHSNGNTYLEWYLQKPGQSPQLLIYKVSNRFSGVPDRFSGSGSGTDFTLKISRVEAEDVGVYYCFQGSHVPLTFGQGTKLEIK
As to B3, the binding entry in test [2] was “no binding”.

B4: humanized antibody Clone 48 (antibody, V domains shown)
VH: QGQLVQSGAEVKKPGASVKVSCKASGYTFTDYEMHWVRQAPGQGLEWMGVIESETGGTAYNQKFKGRAKITADKSTSTAYMELSSLRSEDTAVYYCTREGITTVATTYYWYFDVWGQGTTVTVSS
VL: DVVMTQSPLSLPVTLGQPASISCRSSQSIVHSNGNTYLEWYLQKPGQSPRLLIYKVSNRFSGVPDRFSGSGSGTDFTLKISRVEAEDVGVYYCFQGSHVPLTFGQGTKLEIK
As for B4, in test [2], the binding result is given as “no binding”.

B5: H10L10 (antibody, V domains shown)
VH: QVQLQQSGAELVRPGASVTLSCKASGYTFTDYEMHWVKQTPVHGLEWIGAIDPETGGAAYNQKFKGKAILTADKSSSTAYMELRSLTSEDSAVYYCTREGITTSVVTYYWYFDVWGTGTTVTVSS
VL: DVLMTQTPLSLPVSLGDQASISCRSSQSIVHSNGNTYLEWYLQKPGQSPKLLIYKVSNRFSGVPDRFSGSGSGTDFTLRISRVEPEDLGVYYCFQGSHVPLTFGSGTKLEIK
notes: also called original antibody 10 (heavy chain 10, light chain 10)
Take B5: the binding result (with CD28; with CTLA-4; in test [1]) was “no binding (tested: 1 ug/ml)” throughout.

B6: humanized antibody Clone 39 (antibody, V domains shown)
VH: QGQLVQSGAEVKKPGASVKVSCKASGYTFTDYEMHWVRQAPGQGLEWMGVIESETGGTAYNQKFKGRAKITADKSTSTAYMELSSLRSEDTAVYYCTREGITTVATTYYWYFDVWGQGTTVTVSS
VL: DVVMTQSPLSLPVTLGQPASISCRSSQSIVHSNGNTYLEWYLQKPGQSPQLLIYKVSNRFSGVPDRFSGSGSGTDFTLKISRVEAEDVGVYYCFQGSHVPLTFGQGTKLEIK
On to B6, for which the binding entry in test [2] is given as “no binding”.
